PubChem BioAssay AID743121 | NCATS | 2013
Screen: 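Genes whose silencing strengthens cell killing by camptothecin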 (primary screen). Cells: MDA-MB-231 cells, a human breast cancer line. Reagent: single siRNA against human genes, 20 nM siRNA (0.8 pmol per well). Duration: 120 h (drug added 48 h after transfection, read 72 h later). Conditions: camptothecin 20 nM (about EC30) for 72 h; vehicle 0.1% DMSO in parallel plates. Detection: 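Cell viability by ATP luminescence (CellTiter-Glo) as % of non-targeting siRNA wells, and the log2 ratio of viability without drug over viability with camptothecin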. Scale: log2 vehicle/camptothecin viability: higher = stronger sensitisation to camptothecin; viability with camptothecin and viability without drug: higher = more viable cells. Hit rule: 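Each gene scored by redundant siRNA activity (RSA) over its individual siRNA ratios; a gene is called active at p < 0.001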.
The deposit covers about 26,000 reagents; this is a random part of them. 167 of them (0.63%) were called active. 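Calls are per gene from RSA p-values that are not deposited; an individual active-marked siRNA can sensitise only weakly.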 Reagents against one gene are numbered here. Reagent sequences are not shown.

Target gene | siRNA no. | log2 vehicle/camptothecin viability | viability with camptothecin (% of control) | viability without drug (% of control) | outcome
IFT22 | 1 | 0.106 | 86.8 | 93.5 | inactive
IFT22 | 2 | -0.161 | 113 | 101 | inactive
IFT22 | 3 | 0.0924 | 85.4 | 91.1 | inactive
IFT22 | 4 | -0.284 | 76.7 | 63 | inactive
TRIB1 | 1 | -0.193 | 18.9 | 16.5 | inactive
TRIB1 | 2 | 0.0351 | 70.5 | 72.3 | inactive
TRIB1 | 3 | -0.247 | 75.4 | 63.5 | inactive
TRIB1 | 4 | -0.405 | 11.8 | 8.92 | inactive
TRIB1 | 5 | -0.193 | 52.6 | 46 | inactive
SPINT1 | 1 | -0.0945 | 69.8 | 65.4 | inactive
SPINT1 | 2 | -0.18 | 60.3 | 53.2 | inactive
SPINT1 | 3 | -0.332 | 74.5 | 59.2 | inactive
SPINT1 | 4 | -0.0726 | 50.7 | 48.2 | inactive
KCNE1 | 1 | 0.0688 | 64.7 | 67.8 | inactive
KCNE1 | 2 | -0.22 | 105 | 90.2 | inactive
KCNE1 | 3 | -0.145 | 98.5 | 89.1 | inactive
KCNE1 | 4 | -0.448 | 75.4 | 55.3 | inactive
PPP1R11 | 1 | 0.13 | 79.2 | 86.6 | inactive
PPP1R11 | 2 | -0.275 | 92.8 | 76.7 | inactive
PPP1R11 | 3 | -0.28 | 81.8 | 67.4 | inactive
PPP1R11 | 4 | -0.112 | 70.5 | 65.3 | inactive
CXCL10 | 1 | -0.112 | 100 | 92.9 | inactive
CXCL10 | 2 | -0.25 | 74.5 | 62.6 | inactive
CXCL10 | 3 | -0.307 | 94 | 76 | inactive
CXCL10 | 4 | -0.39 | 73.1 | 55.8 | inactive
ASMT | 1 | 0.091 | 85.2 | 90.8 | inactive
ASMT | 2 | -0.316 | 84.6 | 68 | inactive
ASMT | 3 | -0.277 | 94 | 77.6 | inactive
ASMT | 4 | 0.302 | 61.9 | 76.3 | inactive
PRKG2 | 1 | 0.36 | 29.9 | 38.3 | inactive
PRKG2 | 2 | -0.278 | 94.1 | 77.6 | inactive
PRKG2 | 3 | -0.0318 | 78.2 | 76.5 | inactive
PRKG2 | 4 | -0.216 | 127 | 109 | inactive
COL5A2 | 1 | 0.315 | 49.3 | 61.3 | inactive
COL5A2 | 2 | -0.0023 | 86.5 | 86.3 | inactive
COL5A2 | 3 | -0.041 | 87.9 | 85.4 | inactive
CCL3 | 1 | -0.084 | 68.6 | 64.7 | inactive
CCL3 | 2 | -0.00146 | 117 | 117 | inactive
CCL3 | 3 | 0.946 | 13.5 | 26.1 | inactive
CCL3 | 4 | 0.31 | 31 | 38.4 | inactive
CCL3 | 5 | 0.00347 | 97.3 | 97.6 | inactive
FGFRL1 | 1 | -0.566 | 67.4 | 45.5 | inactive
FGFRL1 | 2 | 0.602 | 23.3 | 35.3 | inactive
FGFRL1 | 3 | -0.0461 | 64.3 | 62.3 | inactive
FGFRL1 | 4 | -0.0854 | 108 | 102 | inactive
UBASH3B | 1 | -0.097 | 106 | 99.5 | inactive
UBASH3B | 2 | 0.179 | 101 | 114 | inactive
UBASH3B | 3 | 0.104 | 89.9 | 96.6 | inactive
STK32C | 1 | 0.211 | 58.5 | 67.8 | inactive
STK32C | 2 | -0.189 | 55.3 | 48.5 | inactive
STK32C | 3 | -0.421 | 108 | 80.3 | inactive
STK32C | 4 | -0.384 | 72.2 | 55.3 | inactive
TLK2 | 1 | -0.346 | 115 | 90.2 | inactive
TLK2 | 2 | -0.000368 | 79.1 | 79.1 | inactive
TLK2 | 3 | -0.184 | 91.3 | 80.3 | inactive
TLK2 | 4 | 0.022 | 71.7 | 72.8 | inactive
SDR16C5 | 1 | -0.358 | 92.7 | 72.3 | inactive
SDR16C5 | 2 | 0.0674 | 91.9 | 96.3 | inactive
SDR16C5 | 3 | -0.465 | 121 | 87.9 | inactive
SDR16C5 | 4 | -0.569 | 81.6 | 55 | inactive
ADCY4 | 1 | -0.201 | 57.9 | 50.4 | inactive
ADCY4 | 2 | -0.0416 | 65.7 | 63.8 | inactive
ADCY4 | 3 | -0.0452 | 45.5 | 44.1 | inactive
PGM5 | 1 | -0.55 | 98.8 | 67.5 | inactive
PGM5 | 2 | -0.144 | 105 | 94.9 | inactive
PGM5 | 3 | -0.21 | 89.5 | 77.4 | inactive
PGM5 | 4 | 0.234 | 57.8 | 68 | inactive
GPR78 | 1 | -0.141 | 93 | 84.4 | inactive
GPR78 | 2 | -0.326 | 36.5 | 29.1 | inactive
GPR78 | 3 | -0.296 | 52.4 | 42.7 | inactive
GPR78 | 4 | 0.0973 | 76.2 | 81.5 | inactive
